No constants are given. Whether binding was seen depends on the method and setting. Binding seen in cells or lysates may run through a third protein. Some results given as binding are weak or reduced against the parent protein; the word gives no strength.
Biological target: FLAG-tagged UBR5 (human) (UniProt O95071)
Experiment: co-IP; HEK293T transiently transfected with FLAG-tagged UBR5; IP with anti-FLAG beads; Western blot for endogenous partners

Amino acid sequences for entries named in this document (tags omitted).
UniProt O95071: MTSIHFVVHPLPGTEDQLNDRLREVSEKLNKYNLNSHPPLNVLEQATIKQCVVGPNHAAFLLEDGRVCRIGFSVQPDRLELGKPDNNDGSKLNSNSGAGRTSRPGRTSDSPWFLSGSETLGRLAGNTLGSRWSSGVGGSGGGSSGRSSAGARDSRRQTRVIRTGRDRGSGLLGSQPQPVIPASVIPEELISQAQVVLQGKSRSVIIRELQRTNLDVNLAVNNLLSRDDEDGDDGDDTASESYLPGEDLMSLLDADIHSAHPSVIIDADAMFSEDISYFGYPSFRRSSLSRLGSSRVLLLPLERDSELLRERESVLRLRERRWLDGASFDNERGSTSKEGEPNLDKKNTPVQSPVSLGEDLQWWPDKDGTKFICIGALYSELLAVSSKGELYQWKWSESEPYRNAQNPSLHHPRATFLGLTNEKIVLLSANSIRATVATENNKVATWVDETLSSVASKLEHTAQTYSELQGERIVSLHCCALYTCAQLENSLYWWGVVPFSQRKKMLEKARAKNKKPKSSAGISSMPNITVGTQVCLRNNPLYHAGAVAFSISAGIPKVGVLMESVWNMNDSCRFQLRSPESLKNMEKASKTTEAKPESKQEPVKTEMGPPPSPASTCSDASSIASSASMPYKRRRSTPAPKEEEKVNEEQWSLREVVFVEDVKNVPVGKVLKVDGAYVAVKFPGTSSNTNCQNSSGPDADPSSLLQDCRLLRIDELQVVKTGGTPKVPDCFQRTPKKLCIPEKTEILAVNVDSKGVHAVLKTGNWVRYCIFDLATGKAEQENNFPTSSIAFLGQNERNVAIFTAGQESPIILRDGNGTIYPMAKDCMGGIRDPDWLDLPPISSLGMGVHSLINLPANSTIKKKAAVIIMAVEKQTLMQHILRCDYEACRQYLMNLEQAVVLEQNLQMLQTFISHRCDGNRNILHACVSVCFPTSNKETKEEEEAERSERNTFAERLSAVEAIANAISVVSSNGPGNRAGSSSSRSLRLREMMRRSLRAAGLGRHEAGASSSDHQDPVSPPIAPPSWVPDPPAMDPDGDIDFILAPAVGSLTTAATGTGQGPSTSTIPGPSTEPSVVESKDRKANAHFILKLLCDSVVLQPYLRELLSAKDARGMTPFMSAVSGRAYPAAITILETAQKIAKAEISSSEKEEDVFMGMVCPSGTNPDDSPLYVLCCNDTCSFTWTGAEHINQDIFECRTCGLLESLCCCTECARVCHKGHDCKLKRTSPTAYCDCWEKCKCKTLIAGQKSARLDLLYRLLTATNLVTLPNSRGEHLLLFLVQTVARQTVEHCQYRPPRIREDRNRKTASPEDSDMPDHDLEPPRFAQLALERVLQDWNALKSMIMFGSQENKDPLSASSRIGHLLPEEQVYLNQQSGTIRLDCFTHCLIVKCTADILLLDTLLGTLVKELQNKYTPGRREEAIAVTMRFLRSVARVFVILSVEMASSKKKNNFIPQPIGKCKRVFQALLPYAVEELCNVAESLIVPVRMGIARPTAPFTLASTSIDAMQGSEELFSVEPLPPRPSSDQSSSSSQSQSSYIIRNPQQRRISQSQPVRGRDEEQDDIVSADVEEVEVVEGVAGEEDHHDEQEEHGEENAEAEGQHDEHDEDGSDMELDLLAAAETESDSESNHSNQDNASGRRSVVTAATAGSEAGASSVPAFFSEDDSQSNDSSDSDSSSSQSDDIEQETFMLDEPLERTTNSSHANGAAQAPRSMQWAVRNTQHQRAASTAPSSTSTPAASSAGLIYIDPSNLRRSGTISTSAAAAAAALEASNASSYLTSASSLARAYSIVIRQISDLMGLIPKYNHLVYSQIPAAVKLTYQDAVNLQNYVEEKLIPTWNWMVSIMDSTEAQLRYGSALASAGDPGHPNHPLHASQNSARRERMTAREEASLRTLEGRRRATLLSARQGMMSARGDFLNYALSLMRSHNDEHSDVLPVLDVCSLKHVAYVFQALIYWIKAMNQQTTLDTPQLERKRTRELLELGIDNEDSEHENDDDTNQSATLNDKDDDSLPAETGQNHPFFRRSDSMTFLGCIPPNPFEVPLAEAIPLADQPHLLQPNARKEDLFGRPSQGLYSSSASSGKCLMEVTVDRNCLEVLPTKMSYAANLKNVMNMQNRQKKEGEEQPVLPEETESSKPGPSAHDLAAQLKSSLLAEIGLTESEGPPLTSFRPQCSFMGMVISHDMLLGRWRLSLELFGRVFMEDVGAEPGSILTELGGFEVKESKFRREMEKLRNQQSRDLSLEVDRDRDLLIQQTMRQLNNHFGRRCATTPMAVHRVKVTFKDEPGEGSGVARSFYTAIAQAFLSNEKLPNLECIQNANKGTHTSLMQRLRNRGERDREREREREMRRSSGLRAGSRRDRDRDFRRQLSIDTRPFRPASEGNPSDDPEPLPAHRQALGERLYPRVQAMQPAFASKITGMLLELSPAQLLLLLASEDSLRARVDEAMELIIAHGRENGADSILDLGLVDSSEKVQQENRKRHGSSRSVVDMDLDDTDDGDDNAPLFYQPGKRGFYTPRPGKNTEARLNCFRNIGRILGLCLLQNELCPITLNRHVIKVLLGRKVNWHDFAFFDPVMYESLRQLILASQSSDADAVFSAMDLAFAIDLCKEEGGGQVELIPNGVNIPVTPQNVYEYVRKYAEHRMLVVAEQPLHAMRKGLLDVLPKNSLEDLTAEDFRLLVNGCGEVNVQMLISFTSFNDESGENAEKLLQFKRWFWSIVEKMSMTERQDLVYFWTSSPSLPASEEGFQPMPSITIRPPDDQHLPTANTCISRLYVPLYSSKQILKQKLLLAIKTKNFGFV
UniProt Q92616: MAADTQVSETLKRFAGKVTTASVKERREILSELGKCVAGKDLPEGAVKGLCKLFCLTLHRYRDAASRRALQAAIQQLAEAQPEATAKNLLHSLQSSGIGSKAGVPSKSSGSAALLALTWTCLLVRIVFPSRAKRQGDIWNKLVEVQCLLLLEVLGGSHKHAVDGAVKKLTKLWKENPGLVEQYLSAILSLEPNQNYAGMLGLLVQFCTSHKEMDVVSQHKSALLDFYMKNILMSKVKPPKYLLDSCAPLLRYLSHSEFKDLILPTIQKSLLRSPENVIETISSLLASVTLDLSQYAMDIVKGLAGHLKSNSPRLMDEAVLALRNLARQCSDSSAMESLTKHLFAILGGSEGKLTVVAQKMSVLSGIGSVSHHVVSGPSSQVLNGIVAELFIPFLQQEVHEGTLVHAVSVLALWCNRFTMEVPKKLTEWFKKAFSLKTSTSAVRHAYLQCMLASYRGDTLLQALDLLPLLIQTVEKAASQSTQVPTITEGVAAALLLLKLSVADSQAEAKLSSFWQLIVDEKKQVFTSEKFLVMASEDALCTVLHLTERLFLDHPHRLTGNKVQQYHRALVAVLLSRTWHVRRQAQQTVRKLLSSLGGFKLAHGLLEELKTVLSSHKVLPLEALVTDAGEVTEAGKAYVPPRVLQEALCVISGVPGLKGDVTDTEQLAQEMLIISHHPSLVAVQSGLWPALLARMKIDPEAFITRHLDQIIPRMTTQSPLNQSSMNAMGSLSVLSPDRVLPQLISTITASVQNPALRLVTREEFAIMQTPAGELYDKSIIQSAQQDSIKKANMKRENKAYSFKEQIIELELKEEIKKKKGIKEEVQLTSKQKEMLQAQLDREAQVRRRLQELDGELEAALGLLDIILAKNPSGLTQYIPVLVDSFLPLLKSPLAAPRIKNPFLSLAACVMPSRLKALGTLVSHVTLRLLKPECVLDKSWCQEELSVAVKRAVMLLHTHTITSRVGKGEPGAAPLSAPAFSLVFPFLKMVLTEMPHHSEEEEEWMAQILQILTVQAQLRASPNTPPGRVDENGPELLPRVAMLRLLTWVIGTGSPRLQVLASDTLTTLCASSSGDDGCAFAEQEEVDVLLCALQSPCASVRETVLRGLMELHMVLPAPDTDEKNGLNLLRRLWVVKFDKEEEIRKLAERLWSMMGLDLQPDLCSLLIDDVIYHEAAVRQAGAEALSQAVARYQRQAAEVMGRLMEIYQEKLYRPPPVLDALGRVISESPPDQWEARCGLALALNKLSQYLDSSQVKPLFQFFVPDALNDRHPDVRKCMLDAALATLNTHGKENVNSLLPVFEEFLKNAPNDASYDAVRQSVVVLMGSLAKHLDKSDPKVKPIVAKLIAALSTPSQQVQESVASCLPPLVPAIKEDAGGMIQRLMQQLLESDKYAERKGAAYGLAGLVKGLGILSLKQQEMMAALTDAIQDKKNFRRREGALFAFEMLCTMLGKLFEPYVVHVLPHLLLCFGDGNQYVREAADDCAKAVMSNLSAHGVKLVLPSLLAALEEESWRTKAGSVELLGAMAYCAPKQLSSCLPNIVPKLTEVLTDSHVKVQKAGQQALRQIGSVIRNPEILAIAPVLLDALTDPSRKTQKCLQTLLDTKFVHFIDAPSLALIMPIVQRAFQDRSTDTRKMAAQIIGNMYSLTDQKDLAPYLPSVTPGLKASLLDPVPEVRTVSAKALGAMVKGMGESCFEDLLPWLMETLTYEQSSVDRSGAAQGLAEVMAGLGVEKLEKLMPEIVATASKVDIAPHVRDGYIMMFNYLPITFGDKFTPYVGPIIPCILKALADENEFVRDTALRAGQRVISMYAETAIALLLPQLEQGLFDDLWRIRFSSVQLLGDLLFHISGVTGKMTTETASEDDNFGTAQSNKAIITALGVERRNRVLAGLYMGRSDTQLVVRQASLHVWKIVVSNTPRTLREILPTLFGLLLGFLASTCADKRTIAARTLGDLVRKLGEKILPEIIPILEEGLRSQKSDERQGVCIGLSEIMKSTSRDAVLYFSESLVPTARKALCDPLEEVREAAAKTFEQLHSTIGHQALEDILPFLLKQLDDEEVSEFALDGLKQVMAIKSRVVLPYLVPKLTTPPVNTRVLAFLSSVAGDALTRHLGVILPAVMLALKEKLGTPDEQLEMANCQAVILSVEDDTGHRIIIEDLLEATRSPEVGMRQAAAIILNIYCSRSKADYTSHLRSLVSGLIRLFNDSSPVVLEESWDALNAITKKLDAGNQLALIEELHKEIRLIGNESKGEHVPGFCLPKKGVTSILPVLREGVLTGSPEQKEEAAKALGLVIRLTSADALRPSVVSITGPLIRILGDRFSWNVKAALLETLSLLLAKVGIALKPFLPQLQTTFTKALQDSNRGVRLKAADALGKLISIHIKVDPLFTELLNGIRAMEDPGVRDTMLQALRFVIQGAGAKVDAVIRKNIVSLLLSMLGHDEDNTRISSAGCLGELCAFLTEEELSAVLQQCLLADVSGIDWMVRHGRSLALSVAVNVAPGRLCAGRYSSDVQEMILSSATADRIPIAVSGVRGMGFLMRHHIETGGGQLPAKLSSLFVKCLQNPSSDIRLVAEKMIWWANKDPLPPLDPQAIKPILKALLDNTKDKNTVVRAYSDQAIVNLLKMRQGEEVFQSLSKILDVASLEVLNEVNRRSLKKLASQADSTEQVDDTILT

Substance | binding
GCN1L1 (from UniProt Q92616 1-2671) | binds
DNA-dependent protein kinase (from UniProt P78527 1-4128) | binds
Raptor (from UniProt Q8N122 1-1335) | binds
